According to the odorant receptor screen of Mainland et al. (2015):
Where “and” joins values, the source holds several entries; their conditions need not be identical. Identical values can stand only once. This is one part of the list. Single wells; the ratio to wells without odorant was worked out here, and repeats agree poorly.

Each compound was assayed on OR1D5 clone 1692 (assay: odorant receptor activation (CRE luciferase / Renilla) (fold of no-odor wells); higher = more activation). Conditions: 100 µM.
`CC=Cc1ccc(O)c(OC)c1` [isoeugenol] showed an odorant receptor activation of 3.27. `O=C1CCCCCCCCCCCCCCO1` [pentadecalactone] was tested, and the odorant receptor activation was 0.687. Compound `CCCCCCC=O` [heptaldehyde] has an odorant receptor activation of 0.985. With `CC12CCC(CC1)C(C)(C)O2` [cineole] the odorant receptor activation was 0.843. Compound `C=CCSCC=C` [diallyl sulfide] has an odorant receptor activation of 0.818. Compound `CC(=O)OC1CC2CCC1(C)C2(C)C` (stereo not given) [isobornyl acetate] has an odorant receptor activation of 0.901. `C=C(C)C1CCC2=CC(=O)CC(C)C2(C)C1` (stereo not given) [amyl laurate] showed an odorant receptor activation of 0.962. `COC(=O)c1ccccc1O` [methyl salicylate] gave an odorant receptor activation of 0.851. `C=CC(C)(O)CCC=C(C)C` (stereo not given) [linalool] gave an odorant receptor activation of 0.856. `C=CCc1ccc(OC(C)=O)c(OC)c1` [eugenol acetate] was tested, and the odorant receptor activation was 1.5. In the case of `CCCCCCOC(=O)CCC` [hexyl butyrate], the odorant receptor activation was 0.809. With `CCCCCOC(C)=O` [n-amyl acetate] the odorant receptor activation was 0.778. Work on `CC(=O)OC(C)(C)C1CC=C(C)CC1` (stereo not given) [terpinyl acetate] yielded an odorant receptor activation of 0.63. For `C=C(C)C1CC=CCC1` (stereo not given) [r-limonene], the odorant receptor activation was 1.05. `CCCCCCCCCC=O` [decyl aldehyde] showed an odorant receptor activation of 1.16. `CC(C)(O)CCCC1=CCC(C=O)CC1` (stereo not given) [lyral] was tested, and the odorant receptor activation was 0.814. `CC(=O)C(C)=O` [diacetyl] was tested, and the odorant receptor activation was 0.855. `CCCCCCCCOC(C)=O` [octyl acetate] gave an odorant receptor activation of 0.692. With `C=CCc1ccc(O)c(OC)c1` [eugenol] the odorant receptor activation was 1.3. Work on `CCCCCCCOC(C)=O` [heptyl acetate] yielded an odorant receptor activation of 0.791.

What follows are compounds tested on OR1E1 clone 1257 in the same assay as above. Conditions: 100 µM.
`CC=Cc1ccc(O)c(OC)c1` [isoeugenol] was tested, and the odorant receptor activation was 0.843 and 0.933. In the case of `O=C1CCCCCCCCCCCCCCO1` [pentadecalactone], the odorant receptor activation was 0.745. `CC12CCC(CC1)C(C)(C)O2` [cineole] was tested, and the odorant receptor activation was 1.19. For `O=C1CCCCC1` [Cyclohexanone], the odorant receptor activation was 0.386. `C=CCSCC=C` [diallyl sulfide] showed an odorant receptor activation of 0.992. Work on `CC(=O)OC1CC2CCC1(C)C2(C)C` (stereo not given) [isobornyl acetate] yielded an odorant receptor activation of 1.06. With `COC(=O)c1ccccc1O` [methyl salicylate] the odorant receptor activation was 0.709. In the case of `COC(=O)c1ccccc1` [methyl benzoate], the odorant receptor activation was 0.417. With `C=CC(C)(O)CCC=C(C)C` (stereo not given) [linalool] the odorant receptor activation was 0.814. For `C=CCc1ccc(OC(C)=O)c(OC)c1` [eugenol acetate], the odorant receptor activation was 1.69. `CC12C=CCC1C1CCC3CC(=O)CCC3(C)C1CC2` (stereo not given) [androstenone] was tested, and the odorant receptor activation was 1.67. With `CC12C=CCC1C1CCC3=CC(=O)CCC3(C)C1CC2` (stereo not given) [androstadienone] the odorant receptor activation was 1.21 and 1.33. `CC(C)(C)c1ccc(CCC=O)cc1` [bourgeonal] was tested, and the odorant receptor activation was 0.919. In the case of `CCCCCCOC(=O)CCC` [hexyl butyrate], the odorant receptor activation was 0.814 and 1.16. `CC1COCc2cc3c(cc21)C(C)(C)C(C)C3(C)C` (stereo not given) [galaxolide] was tested, and the odorant receptor activation was 1.13 and 1.43. For `CC(=O)c1ccccc1` [acetophenone], the odorant receptor activation was 1.53. For `CC1=NC(C)SC1C` (stereo not given), the odorant receptor activation was 0.862. Compound `CCCCCOC(C)=O` [n-amyl acetate] has an odorant receptor activation of 0.671. `CC(=O)OC(C)(C)C1CC=C(C)CC1` (stereo not given) [terpinyl acetate] gave an odorant receptor activation of 1.34. `CCCCCCCCCC=O` [decyl aldehyde] showed an odorant receptor activation of 1.32. For `CC(=O)C(C)=O` [diacetyl], the odorant receptor activation was 1.2. `CCCCCCCCOC(C)=O` [octyl acetate] was tested, and the odorant receptor activation was 1.09. For `C=CCc1ccc(O)c(OC)c1` [eugenol], the odorant receptor activation was 0.975 and 1.29. `CCCCCCCOC(C)=O` [heptyl acetate] was tested, and the odorant receptor activation was 0.909 and 1.19. Compound `CCCCCC(C)=O` [2-heptanone] has an odorant receptor activation of 0.582.
